Experimental findings from US20260265360A1, “USE OF ANTI-FAM19A5 ANTAGONISTS FOR TREATING HEARING DISORDERS” (NEURACLE SCIENCE CO., LTD., priority 2023, published 2026) are described below.

The chains behind the UniProt entries cited, without tags or fusion partners. Where a name states a change or a piece, a line headed by the entry shows the natural chain unless it says otherwise.
UniProt Q7Z5A7: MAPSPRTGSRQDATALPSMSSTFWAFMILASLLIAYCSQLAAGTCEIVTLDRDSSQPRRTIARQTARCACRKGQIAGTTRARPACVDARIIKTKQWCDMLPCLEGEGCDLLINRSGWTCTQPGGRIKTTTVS

These are yes or no findings as the source states them, for the method shown. Some binding calls cover weakened binding; strength is not graded here.

The target of test [1] is T1, FAM19A5 epitope fragment F5, BSA-conjugated (human).
T1 sequence (peptide, conjugated to BSA): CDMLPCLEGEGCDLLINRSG
The experiment in a line: ELISA, plate-coated BSA-conjugated FAM19A5 fragments F1-F6.

Test [2] has as its target Human FAM19A5 protein (Wild Type) (human) (UniProt Q7Z5A7). Kind of test: epitope mapping (data not shown); two-site sandwich ELISA. On the technique in general: ELISA stands for enzyme-linked immunosorbent assay.
The target in the next test is T2, F2-11-BSA (#11) (human).
T2 sequence (peptide, conjugated to BSA): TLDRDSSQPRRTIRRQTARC
Kind of test: ELISA, plate-coated F2 mutant peptides (BSA-conjugated).

Test [3] addresses FAM19A5 mutant M5 (human) (UniProt Q7Z5A7). The experiment in a line: ELISA on phage-expressed FAM19A5 mutants M1-M8.

B1: Anti-FAM19A5 antibody 1-65 (antibody, V domains shown)
VH: AVTLDESGGGLQTPGGALSLVCKASGFTFSSYQMGWVRQAPGKGLEWVGVINKSGSDTSYGSAVKGRATISRDNGQSTVRLQLNNLRAEDTGTYFCAKGSASYITAATIDAWGHGTEVIVSS
VL: ALTQPSSVSANPGETVKITCSGGGSSGYGYGWYQQKSPSSAPLTVIYWNDKRPSDIPSRFSGSKSGSTHTLTITGVQAEDEAVYFCGNDDYSSDSGYVGVFGAGTTLTVL
Consider B1, for which the binding entry in test [1] and in test [2] was “binds” throughout.

B2: Anti-FAM19A5 antibody P2-A03 (antibody, V domains shown)
VH: QSVEESGGRLVTPGTPLTLTCTVSGFSLNNYDMSWVRQAPGKGLEYIGFMDTDGSAYYATWAKGRFTISRTSTTVDLKMTSPTTEDTATYFCARRGSSYYGGIDIWGPGTPVTVSL
VL: ELDLTQTPASVSEPVGGTVTIKCQASQSIGGNLAWYQQKPGQPPKLLIYRASTLASGVPSRFKGSGSGTDFTLTISDLECADAATYYCQSPAYDPAAYVGNAFGGGTELEIL
Take B2: in test [2], the binding result is “binds”.

B3: Anti-FAM19A5 antibody 13B4 (antibody, V domains shown)
VH: QVQLQESGPGLVKPSGTLSLNCAVSGGSISSSNWWSWVRQPPGKGLEWIGEIYHGGTTNYNPSLKGRVTMSVDKTKNQFSLRLSSVTAVDTAVYYCARWQLVGGLDVWGQGTTVTVSS
VL: SYELTQPLSVSVSPGQTASITCSGDKLGNVYASWYQQKPGQSPTLVIYQDNKRPSGIPERFSGSNSGKTATLTISGTQALDEADYYCQAWDSSTAVFGGGTKLTVL
In the case of B3, the binding result in test [2] is “binds”.

B4: Anti-FAM19A5 antibody 1-28 (antibody, V domains shown)
VH: AVTLDESGGGLQTPGGALSLVCKASGFDFSDYGMGWVRQAPGKGLEWVAAIRSDGSNPSYGSAVKGRATISKDNGRSTVRLQLNNLRAEDTATYYCAKDGNGYCALDAYRSGGYSCGVYPGSIDAWGHGTEVIVSS
VL: ALTQPSSVSANLEGTVEITCSGSGYGYGWYQQKSPGSAPVTVIYQNDKRPSDIPSRFSGSKSGSTGTLTITGVQVEDEAVYYCGSEDSSTLAGIFGAGTTLTVL
B4: the binding result with F2-11-BSA (#11) (human) is listed as “binds”.

B5: Anti-FAM19A5 antibody P2-C12 (antibody, V domains shown)
VH: QSLEESGGRLVTPGTPLTLTCTVSGFSLSTYAVTWVRQAPGKGLEWIGYINWRGGTSYANWAKGRFTISKTSSTTVDLKMTSPTTEDTATYFCARDASSGAAFGSYGMDPWGPGTLVTVSS
VL: ELDMTQTPSSVSAAVGGTVTIKCQASQSISSYLSWYQQKPGQPPKLLIYEASKLASGVPSRFSGSGYGTEFTLTISDLECADAATYYCQQGYSSTNVWNAFGGGTNVEIK
Turning to B5, in test [1], the binding entry is on record as “binds”.

B6: Anti-FAM19A5 antibody 2-13 (antibody, V domains shown)
VH: AVTLDESGGGLQTPGGALSLVCKASGFTFSSHGMFWVRQTPGKGLEYVAEITNDGSGTNYGSAVKGRATISRDNGQSTVRLQLNNLRAEDTGTYFCARSTYECPGGFSCWGDTGQIDAWGHGTEVIVSS
VL: ALTQPSSVSANPGETVKITCSGGSYSYGWFQQKSPGSALVTVIYWDDERPSDIPSRFSGALSGSTNTLTITGVQADDEAVYFCGTEDISGTAGVFGAGTTLTVL
As for B6, the binding entry in test [3] is reported as “binds”.
